{"source": "patent US20070191291A1", "about": "“Compound antibacterial drugs comprising n-acetyl-d-glucosamine” (priority 2003, published 2007)", "tested_on": "irritable bowel syndrome (IBS) caused by bacterial CGC", "assay": "Test Example 5: preventing irritable bowel syndrome (IBS) caused by bacterial CGC", "type": "in vivo", "conditions": "effective dosage for consecutive 10 days, 30 rats per group", "text": "On this basis, the rats were subjected to stimulations such as electric stimulation, intragastric administration with fructus zanthoxyli water, cold, constraint etc. in order to induce IBS, and the incidence rates of IBS of two groups were observed.", "note": "At least one structure is not confirmed: it was looked up by name or label, or the drawing left a doubt.", "data": [{"smiles": "NC[C@H]1O[C@H](O[C@H]2[C@H](O)[C@@H](O[C@H]3O[C@H](CO)[C@@H](O)[C@H](N)[C@H]3O)[C@H](N)C[C@@H]2N)[C@H](O)[C@@H](O)[C@@H]1O", "note": "[Kanamycin, kanamycin]", "values": [{"measurement": "CGCs in the stools of the rats", "setting": "stools observed during administration and within 1 week after drug withdrawal", "value": "a large amount of CGCs appeared"}, {"measurement": "CGCs in the rat stools after one week of drug withdrawal", "setting": "rats", "value": "still present"}]}]}
